The text below walks through data of publication PMC3843111.

Sequences of proteins named here, by UniProt entry; tags and fusion partners are left off.
UniProt Q8CHK4: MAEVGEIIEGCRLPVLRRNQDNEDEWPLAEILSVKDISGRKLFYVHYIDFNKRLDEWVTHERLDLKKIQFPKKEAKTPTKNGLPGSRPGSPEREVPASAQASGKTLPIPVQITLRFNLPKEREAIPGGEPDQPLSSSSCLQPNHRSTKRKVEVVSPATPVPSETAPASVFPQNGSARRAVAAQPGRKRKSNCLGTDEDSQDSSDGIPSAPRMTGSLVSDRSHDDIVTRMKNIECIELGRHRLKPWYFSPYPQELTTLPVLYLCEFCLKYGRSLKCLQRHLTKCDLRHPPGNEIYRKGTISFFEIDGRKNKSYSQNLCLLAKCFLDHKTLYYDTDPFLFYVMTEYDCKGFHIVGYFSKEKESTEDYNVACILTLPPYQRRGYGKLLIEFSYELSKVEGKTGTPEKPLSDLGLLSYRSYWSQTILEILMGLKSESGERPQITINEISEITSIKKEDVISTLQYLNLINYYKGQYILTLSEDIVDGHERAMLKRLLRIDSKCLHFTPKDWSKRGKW

The target of the assay is Tip60-H3F (Tip60 with a C-terminal 6-histidine-3-FLAG tag, from the endogenous gene) in ESCs (mouse (endogenous in ESCs)) (UniProt Q8CHK4). In words: affinity purification with mass spectrometry; double affinity purification (FLAG-M2 Agarose, then TALON Agarose) of Tip60-H3F from ESC nuclear extracts, untagged cells as control; SDS-PAGE, in-gel digestion, LC-MS/MS.

No constants are given. Whether binding was seen depends on the method and setting. In cells and extracts the contact can be indirect. A yes stands for co-enrichment or nearness to the bait. Other partners may have been found.

B1: Highly divergent homeobox (protein, UniProt Q14B70 1-692)
chain: MNLRSVFTVEQQRILQRYYENGMTNQSKNCFQLILQCAQETKLDFSVVRTWVGNKRRKMSSKSCESGAAGTVSGTSLAAPDITVRNVVNIARPSSQQSSWTSANNDVIVTGIYSPVSSSSKQGTTKHTNTQITEAHKIPIQKAANKNDTELQLHIPVQRQVAHCKNASVLLGEKTIILSRQTSVLNAGNSVYNHTKKSYGSSPVQASEMTVPQKPSVCQRPCKIEPVGIQRSYKPEHAGLASHNLCGQKPTIRDPCCRTQNLEIREVFSLAVSDYPQRILGGNSTQKPASAEGTCLSIAMETGDAEDEYAREEELASMGAQITSYSRFYESGNSLRAENQSTNLPGPGRNLPNSQMVNIRDLSDNVLYQTRDYHLTPRTSLHTASSTMYSNTNPSRSNFSPHFVSSNQLRLSQNQNNYQISGNLSVPWITGCSRKRALQDRTQFSDRDLATLKKYWDNGMTSLGSVCREKIEAVAIELNVDCEIVRTWIGNRRRKYRLMGIEVPPPRGGPADFSEQPESGSLSALTPGEEAGPEVGEDNDRNDEVSICLSEASSQEESNELIPNETRAHKDEEHQAVSADNVKIEIIDDEESDMISNSEVEQENSLLDYKNEEVRFIENELEIQKQKYFKLQSFVRNLILAMKADDKDQQQALLSDLPPELEEMDCSHASPDPDDTSLSVSSLSEKNASDSL
On to B1, for which the binding result is on record as “binds”.

B2: Protein flightless-1 homolog (protein, UniProt Q9JJ28 1-1271)
chain: MEATGVLPFVRGVDLSGNDFKGGYFPENVKAMTSLRWLKLNRTGLCYLPEELAALQKLEHLSVSHNHLTTLHGELSSLPSLRAIVARANSLKNSGVPDDIFKLDDLSVLDLSHNQLTECPRELENAKNMLVLNLSHNGIDSIPNQLFINLTDLLYLDLSENRLESLPPQMRRLVHLQTLVLNGNPLLHAQLRQLPAMMALQTLHLRNTQRTQSNLPTSLEGLSNLSDVDLSCNDLTRVPECLYTLPSLRRLNLSSNQIAELSLCIDQWVHLETLNLSRNQLTSLPSAICKLTKLKKLYLNSNKLDFDGLPSGIGKLTSLEEFMAANNNLELIPESLCRCPKLKKLVLNKNRLVTLPEAIHFLTEIQVLDVRENPSLVMPPKPADRTAEWYNIDFSLQNQLRLAGASPATVAAAAAVGSGSKDPLARKMRLRRRKDSAQDVQAKQVLKGMSDVAQEKNKNQEESIDARAPGGKVRRWDQGLEKPRLDYSEFFTEDVGQLPGLTIWQIENFVPVLVEEAFHGKFYEADCYIVLKTFLDDSGSLNWEIYYWIGGEATLDKKACSAIHAVNLRNYLGAECRTVREEMGDESEEFLQVFDNDISYIEGGTASGFYTVEDTHYVTRMYRVYGKKNIKLEPVPLKGSSLDPRFVFLLDQGLDIYVWRGAQATLSNTTKARLFAEKINKNERKGKAEITLLVQGQEPPGFWDVLGGEPSEIKNHVPDDFWPPQPKLYKVGLGLGYLELPQINYKLSVEHKKRPKVELMPGMRLLQSLLDTRCVYILDCWSDVFIWLGRKSPRLVRAAALKLGQELCGMLHRPRHTVVSRSLEGTEAQVFKAKFKNWDDVLTVDYTRNAEAVLQGQGLSGKVKRDTEKTDQMKADLTALFLPRQPPMPLAEAEQLMEEWNEDLDGMEGFVLEGRKFTRLPEEEFGHFYTQDCYVFLCRYWVPVEYEEEEKTEDKEGKASAEAREGEEAAAEAEEKQPEEDFQCIVYFWQGREASNMGWLTFTFSLQKKFESLFPGKLEVVRMTQQQENPKFLSHFKRKFIIHRGKRKVTQGTLQPTLYQIRTNGSALCTRCIQINTDSSLLNSEFCFILKVPFESEDNQGIVYAWVGRASDPDEAKLAEDILNTMFDASYSKQVINEGEEPENFFWVGIGAQKPYDDDAEYMKHTRLFRCSNEKGYFAVTEKCSDFCQDDLADDDIMLLDNGQEVYMWVGTQTSQVEIKLSLKACQVYIQHTRSKEHERPRRLRLVRKGNEQRAFTRCFHAWSTFRQAPA
With B2, the binding entry is listed as “binds”.

B3: Protein unc-84 homolog B (protein, UniProt Q8BJS4 1-731)
chain: MSRRSQRLTRYSQDDNDGGSSSSGASSVAGSQGTVFKDSPLRTLKRKSSNMKHLSPAPQLGPSSDSHTSYYSESVVRESYIGSPRAVSLARSALLDDHLHSEPYWSGDLRGRRRRGTGGSESSKANGLTAESKASEDFFGSSSGYSSEDDLAGYTDSDQHSSGSRLRSAASRAGSFVWTLVTFPGRLFGLLYWWIGTTWYRLTTAASLLDVFVLTRSRHFSLNLKSFLWFLLLLLLLTGLTYGAWHFYPLGLQTLQPAVVSWWAAKESRKQPEVWESRDASQHFQAEQRVLSRVHSLERRLEALAADFSSNWQKEAIRLERLELRQGAAGHGGGSSLSHEDALSLLEGLVSRREATLKEDLRRDTVAHIQEELATLRAEHHQDSEDLFKKIVQASQESEARVQQLKTEWKSMTQEAFQESSVKELGRLEAQLASLRQELAALTLKQNSVADEVGLLPQKIQAARADVESQFPDWIRQFLLGDRGARSGLLQRDEMHAQLQELENKILTKMAEMQGKSAREAAASLGQILQKEGIVGVTEEQVHRIVKQALQRYSEDRIGMVDYALESGGASVISTRCSETYETKTALLSLFGIPLWYHSQSPRVILQPDVHPGNCWAFQGPQGFAVVRLSARIRPTAVTLEHVPKALSPNSTISSAPKDFAIFGFDEDLQQEGTLLGTFAYDQDGEPIQTFYFQASKMATYQVVELRILTNWGHPEYTCIYRFRVHGEPAH
On to B3, for which the binding entry is on record as “binds”.
